According to paper PMC5239560:
Results are given in words; binding and its absence hold for the method and conditions named. Binding seen in cells or lysates may run through a third protein. Some entries that bind do so weakly or less than the wild type. Sequences can lack the tags named with a protein.

Protein sequences, listed by entry. Tags and fused reporters are not part of them.
UniProt Q9BSK0: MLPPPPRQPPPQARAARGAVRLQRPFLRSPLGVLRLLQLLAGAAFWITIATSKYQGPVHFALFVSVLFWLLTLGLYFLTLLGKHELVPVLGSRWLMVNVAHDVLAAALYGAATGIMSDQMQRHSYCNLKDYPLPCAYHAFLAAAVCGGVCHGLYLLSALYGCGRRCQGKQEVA

Biological target: T1, Flag-SREBP1a (UniProt P36956)
T1 sequence: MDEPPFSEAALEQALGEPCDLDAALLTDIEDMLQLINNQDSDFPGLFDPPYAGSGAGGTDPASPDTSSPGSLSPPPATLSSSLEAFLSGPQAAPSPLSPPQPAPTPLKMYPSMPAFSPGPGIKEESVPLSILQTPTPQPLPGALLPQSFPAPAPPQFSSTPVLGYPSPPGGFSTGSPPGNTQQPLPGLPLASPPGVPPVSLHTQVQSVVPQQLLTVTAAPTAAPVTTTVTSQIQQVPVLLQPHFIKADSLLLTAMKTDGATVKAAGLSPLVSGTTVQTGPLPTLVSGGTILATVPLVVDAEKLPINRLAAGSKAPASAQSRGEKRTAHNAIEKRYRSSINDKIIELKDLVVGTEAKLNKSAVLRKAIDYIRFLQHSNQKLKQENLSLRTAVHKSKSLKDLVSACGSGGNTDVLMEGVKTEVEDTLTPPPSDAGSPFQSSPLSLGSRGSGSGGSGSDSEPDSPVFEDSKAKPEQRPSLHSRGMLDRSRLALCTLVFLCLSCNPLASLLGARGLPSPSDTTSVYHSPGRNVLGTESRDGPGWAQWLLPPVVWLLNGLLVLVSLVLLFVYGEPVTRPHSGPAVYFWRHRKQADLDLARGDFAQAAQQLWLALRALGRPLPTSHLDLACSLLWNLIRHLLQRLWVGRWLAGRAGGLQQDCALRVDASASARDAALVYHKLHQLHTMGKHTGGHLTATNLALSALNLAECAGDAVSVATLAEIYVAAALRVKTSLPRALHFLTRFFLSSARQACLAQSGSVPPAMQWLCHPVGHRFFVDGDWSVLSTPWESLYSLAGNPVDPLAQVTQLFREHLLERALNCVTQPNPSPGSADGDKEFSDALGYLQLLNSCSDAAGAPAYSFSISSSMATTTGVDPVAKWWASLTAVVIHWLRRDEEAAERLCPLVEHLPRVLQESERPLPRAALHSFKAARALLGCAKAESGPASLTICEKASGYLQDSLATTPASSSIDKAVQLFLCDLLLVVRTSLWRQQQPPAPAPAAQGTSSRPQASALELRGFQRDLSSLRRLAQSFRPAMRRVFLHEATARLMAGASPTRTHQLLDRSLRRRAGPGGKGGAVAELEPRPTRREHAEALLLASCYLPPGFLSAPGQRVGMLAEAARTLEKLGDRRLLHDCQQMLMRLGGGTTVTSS
Assay: co-IP; HEK293T co-transfected with Flag-SREBP1a and HA-MARVELD1, 48 h; lysates in IP buffer, anti-Flag M2 affinity gel 3 h at 4°C (IgG as control); immunoblot with anti-HA and anti-Flag

- binding: binds
Substance: HA-MARVELD1 (from UniProt Q9BSK0 1-173)
